According to publication PMC8274477:
Results are given in words; binding and its absence hold for the method and conditions named. Some results given as binding are weak or reduced against the parent protein; the word gives no strength.

The chains behind the UniProt entries cited, without tags or fusion partners.
UniProt P04406: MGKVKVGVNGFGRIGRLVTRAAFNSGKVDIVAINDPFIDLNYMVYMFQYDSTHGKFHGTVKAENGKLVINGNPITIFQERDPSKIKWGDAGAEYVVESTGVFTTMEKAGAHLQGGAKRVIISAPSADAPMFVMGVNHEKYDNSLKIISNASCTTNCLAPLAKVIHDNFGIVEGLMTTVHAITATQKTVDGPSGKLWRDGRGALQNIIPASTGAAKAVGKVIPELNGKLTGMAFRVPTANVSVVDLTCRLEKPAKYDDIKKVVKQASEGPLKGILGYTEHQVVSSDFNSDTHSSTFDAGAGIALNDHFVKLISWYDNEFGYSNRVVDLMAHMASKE
UniProt Q8IZP0: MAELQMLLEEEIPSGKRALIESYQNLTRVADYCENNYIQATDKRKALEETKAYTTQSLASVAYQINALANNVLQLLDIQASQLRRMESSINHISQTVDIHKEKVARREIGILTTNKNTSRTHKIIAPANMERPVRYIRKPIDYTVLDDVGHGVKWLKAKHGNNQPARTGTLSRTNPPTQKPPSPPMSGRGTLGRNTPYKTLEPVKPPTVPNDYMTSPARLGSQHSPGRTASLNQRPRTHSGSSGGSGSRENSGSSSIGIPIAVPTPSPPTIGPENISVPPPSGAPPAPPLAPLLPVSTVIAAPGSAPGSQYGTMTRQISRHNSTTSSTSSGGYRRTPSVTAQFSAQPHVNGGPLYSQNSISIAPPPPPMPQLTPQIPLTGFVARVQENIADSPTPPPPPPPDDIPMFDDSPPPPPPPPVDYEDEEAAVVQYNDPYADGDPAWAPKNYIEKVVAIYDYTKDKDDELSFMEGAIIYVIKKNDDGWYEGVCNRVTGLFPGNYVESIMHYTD
UniProt P57723: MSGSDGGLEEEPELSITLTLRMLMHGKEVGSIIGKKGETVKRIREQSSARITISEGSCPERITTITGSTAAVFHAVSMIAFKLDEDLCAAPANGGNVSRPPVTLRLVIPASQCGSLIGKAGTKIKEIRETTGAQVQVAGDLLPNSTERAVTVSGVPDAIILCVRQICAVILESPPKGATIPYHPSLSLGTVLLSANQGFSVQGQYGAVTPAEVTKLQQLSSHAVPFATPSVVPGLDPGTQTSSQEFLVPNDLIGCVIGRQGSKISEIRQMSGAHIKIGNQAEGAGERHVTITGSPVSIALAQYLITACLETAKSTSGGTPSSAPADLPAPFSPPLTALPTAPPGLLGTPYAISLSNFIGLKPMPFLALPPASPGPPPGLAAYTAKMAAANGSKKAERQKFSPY

How the values were obtained:
Experiment in all cases: peptide or protein array; HuProt human proteome microarray; 5 ug/5 ml biotin-labelled LUBAC or OTULIN in solution, 1 h at room temperature; Cy5-streptavidin, scanned at 635 nm; BSA as negative control; hits: Z-score >= 3 and I_(Mean_Ratio) >= 1.4; both purified
[1] = target: T1, CRY2 (human) (UniProt Q49AN0)
T1 sequence: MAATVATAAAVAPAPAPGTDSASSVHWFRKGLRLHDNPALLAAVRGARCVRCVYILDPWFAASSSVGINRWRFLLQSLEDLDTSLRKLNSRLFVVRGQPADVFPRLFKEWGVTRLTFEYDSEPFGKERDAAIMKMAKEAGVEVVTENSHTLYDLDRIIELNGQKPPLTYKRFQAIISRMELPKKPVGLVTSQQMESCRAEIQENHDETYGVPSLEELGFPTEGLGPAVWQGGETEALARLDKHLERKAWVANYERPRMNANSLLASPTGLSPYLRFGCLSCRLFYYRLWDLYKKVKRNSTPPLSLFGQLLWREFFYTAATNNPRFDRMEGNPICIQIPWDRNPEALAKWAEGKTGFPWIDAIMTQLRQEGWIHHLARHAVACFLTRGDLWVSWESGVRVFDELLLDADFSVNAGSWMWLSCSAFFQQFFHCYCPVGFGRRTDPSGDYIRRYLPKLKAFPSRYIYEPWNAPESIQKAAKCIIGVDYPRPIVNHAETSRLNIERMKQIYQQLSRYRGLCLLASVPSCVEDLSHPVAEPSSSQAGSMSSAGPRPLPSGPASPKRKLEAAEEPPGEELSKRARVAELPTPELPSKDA

[2] = target: T2, POP7 (human) (UniProt O75817)
T2 sequence: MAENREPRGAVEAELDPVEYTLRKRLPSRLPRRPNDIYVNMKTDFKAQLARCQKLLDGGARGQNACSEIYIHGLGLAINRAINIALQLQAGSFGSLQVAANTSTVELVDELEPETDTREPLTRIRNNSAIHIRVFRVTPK

[3] = target: GAPDH (human) (UniProt P04406)
[4] = target: ABI1 (spot on the microarray) (human) (UniProt Q8IZP0)
[5] = target: T3, XAGE3 (human) (UniProt Q8WTP9)
T3 sequence: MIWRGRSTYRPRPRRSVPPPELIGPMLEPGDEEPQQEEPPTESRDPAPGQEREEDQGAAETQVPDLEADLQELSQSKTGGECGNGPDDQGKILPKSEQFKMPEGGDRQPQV

[6] = target: PCBP4 (human) (UniProt P57723)
[7] = target: HOMER3 (human) (UniProt Q9NSC5)
[8] = target: T4, RBM46 (human) (UniProt Q8TBY0)
T4 sequence: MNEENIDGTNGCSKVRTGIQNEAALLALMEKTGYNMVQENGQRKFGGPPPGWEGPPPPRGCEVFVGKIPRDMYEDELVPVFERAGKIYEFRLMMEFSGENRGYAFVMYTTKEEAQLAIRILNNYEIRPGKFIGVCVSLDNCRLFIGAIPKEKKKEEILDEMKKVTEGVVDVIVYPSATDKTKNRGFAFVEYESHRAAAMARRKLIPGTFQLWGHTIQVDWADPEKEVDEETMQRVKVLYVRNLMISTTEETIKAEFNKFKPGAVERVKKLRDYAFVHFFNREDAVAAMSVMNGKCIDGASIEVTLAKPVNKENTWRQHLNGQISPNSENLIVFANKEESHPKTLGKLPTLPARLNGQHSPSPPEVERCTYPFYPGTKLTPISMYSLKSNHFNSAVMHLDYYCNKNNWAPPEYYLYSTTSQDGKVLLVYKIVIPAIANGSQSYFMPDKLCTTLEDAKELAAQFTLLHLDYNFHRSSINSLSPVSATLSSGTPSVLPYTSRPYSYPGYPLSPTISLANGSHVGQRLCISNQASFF

Measured: binding

linear ubiquitin chain assembly complex (LUBAC), purified as HIS-tagged HOIP with the subunit HOIL-1, biotin-labelled (from UniProt Q96EP0 1-1072; Q9BYM8 1-510)
binds: all assays above
